# In the supplement of paper PMC12067093, “Discovery and optimisation of a covalent ligand for TRIM25 and its application to targeted protein ubiquitination” (Chemical Science, 2025):
# The chains behind the UniProt entries cited, without tags or fusion partners. Where a name states a change or a piece, a line headed by the entry shows the natural chain unless it says otherwise.
# UniProt P13501: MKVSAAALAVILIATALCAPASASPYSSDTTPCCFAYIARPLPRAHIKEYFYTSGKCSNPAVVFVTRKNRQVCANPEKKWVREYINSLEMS
# UniProt Q3V6T2: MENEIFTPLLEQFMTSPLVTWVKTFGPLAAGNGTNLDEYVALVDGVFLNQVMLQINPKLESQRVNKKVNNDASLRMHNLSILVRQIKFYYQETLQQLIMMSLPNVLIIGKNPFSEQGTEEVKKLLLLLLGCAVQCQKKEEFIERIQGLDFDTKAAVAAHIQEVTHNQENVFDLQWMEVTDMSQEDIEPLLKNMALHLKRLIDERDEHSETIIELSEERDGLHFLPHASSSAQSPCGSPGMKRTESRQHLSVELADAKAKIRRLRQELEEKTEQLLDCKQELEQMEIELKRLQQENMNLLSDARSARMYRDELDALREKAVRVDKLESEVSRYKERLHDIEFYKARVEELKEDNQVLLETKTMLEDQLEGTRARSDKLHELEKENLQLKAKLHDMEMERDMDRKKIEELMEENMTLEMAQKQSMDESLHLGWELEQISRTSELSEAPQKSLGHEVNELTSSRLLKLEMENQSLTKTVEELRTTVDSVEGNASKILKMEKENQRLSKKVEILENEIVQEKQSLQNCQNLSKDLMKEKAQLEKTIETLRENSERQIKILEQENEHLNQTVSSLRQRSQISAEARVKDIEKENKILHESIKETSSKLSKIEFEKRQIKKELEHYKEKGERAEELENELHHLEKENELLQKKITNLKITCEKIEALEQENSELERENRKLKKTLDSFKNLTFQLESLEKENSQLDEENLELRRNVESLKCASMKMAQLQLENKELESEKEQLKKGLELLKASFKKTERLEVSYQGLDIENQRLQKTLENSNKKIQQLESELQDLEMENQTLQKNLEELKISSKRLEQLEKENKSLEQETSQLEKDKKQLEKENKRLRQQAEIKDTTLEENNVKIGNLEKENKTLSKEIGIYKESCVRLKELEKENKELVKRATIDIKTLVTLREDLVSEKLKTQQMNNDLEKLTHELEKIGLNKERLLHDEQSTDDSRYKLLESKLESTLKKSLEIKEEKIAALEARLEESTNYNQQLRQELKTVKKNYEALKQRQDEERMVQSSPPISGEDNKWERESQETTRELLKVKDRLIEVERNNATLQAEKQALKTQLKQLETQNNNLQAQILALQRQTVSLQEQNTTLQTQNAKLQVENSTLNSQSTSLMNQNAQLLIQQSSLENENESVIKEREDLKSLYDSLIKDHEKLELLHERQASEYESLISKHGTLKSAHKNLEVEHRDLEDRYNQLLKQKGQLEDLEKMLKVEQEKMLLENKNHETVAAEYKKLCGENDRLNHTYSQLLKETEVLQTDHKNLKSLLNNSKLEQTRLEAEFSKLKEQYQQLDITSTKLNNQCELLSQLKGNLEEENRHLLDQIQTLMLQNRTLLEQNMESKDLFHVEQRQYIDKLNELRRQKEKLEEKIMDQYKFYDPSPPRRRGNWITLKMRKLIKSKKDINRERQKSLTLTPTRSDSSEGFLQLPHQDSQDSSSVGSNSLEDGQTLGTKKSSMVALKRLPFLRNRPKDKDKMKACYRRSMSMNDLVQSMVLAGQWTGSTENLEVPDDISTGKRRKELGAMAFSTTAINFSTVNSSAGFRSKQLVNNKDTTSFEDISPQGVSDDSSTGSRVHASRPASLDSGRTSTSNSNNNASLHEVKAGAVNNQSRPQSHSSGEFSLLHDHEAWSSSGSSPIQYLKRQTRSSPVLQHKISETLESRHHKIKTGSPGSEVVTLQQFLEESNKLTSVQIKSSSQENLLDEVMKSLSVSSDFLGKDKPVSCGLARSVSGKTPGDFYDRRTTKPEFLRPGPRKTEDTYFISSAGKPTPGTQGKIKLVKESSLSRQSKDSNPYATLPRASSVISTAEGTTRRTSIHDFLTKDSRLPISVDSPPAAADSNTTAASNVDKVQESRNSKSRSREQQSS
# UniProt Q01518, whole entry, looked up: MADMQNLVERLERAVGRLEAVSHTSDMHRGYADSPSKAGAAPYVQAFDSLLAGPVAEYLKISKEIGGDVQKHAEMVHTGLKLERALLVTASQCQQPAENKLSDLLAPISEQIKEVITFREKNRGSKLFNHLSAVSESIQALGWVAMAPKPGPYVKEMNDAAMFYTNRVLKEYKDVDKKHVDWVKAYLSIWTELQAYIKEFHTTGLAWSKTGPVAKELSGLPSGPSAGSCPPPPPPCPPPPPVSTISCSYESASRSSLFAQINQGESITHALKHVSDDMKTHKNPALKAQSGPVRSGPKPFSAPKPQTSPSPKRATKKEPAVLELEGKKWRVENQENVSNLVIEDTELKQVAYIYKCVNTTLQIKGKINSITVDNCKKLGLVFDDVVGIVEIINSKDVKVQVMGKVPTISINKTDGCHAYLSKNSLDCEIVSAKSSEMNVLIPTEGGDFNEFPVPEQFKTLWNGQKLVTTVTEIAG
# UniProt Q92851: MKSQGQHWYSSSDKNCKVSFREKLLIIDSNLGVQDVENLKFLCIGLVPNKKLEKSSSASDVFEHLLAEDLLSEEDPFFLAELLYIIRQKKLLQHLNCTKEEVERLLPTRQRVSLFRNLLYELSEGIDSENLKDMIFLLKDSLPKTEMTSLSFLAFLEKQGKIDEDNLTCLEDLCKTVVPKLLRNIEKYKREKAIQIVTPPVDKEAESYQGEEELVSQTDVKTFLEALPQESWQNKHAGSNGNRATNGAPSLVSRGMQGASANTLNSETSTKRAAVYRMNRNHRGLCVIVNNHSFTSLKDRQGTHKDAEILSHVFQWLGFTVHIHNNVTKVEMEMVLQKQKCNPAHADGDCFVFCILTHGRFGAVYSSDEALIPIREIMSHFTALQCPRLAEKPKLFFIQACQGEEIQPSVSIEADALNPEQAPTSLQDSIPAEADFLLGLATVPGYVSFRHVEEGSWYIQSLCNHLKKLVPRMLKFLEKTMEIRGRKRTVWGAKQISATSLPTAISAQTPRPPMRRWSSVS
# UniProt P42575: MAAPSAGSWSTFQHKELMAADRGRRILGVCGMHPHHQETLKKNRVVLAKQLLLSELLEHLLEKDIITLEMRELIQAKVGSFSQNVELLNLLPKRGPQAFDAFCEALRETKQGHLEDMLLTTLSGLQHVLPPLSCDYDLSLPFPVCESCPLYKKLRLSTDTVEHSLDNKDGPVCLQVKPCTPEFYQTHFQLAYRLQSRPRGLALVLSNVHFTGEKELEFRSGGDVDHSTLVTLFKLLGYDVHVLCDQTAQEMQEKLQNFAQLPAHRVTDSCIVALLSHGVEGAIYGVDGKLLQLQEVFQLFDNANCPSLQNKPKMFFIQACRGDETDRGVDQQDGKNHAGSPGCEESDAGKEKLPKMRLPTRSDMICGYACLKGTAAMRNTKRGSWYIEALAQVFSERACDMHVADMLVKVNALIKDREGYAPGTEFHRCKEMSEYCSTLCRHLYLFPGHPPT
# UniProt P29466: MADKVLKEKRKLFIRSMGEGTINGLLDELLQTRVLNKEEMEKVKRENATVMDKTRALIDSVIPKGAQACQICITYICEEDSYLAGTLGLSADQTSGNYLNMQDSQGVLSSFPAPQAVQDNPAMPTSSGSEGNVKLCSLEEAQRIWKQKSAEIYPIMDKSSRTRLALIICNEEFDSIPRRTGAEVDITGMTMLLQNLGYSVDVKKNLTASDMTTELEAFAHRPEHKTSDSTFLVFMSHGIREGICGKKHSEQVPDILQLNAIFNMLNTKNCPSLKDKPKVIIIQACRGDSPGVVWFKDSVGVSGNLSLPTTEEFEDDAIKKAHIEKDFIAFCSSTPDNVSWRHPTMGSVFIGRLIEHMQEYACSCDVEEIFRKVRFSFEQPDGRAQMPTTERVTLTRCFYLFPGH
# UniProt P07384: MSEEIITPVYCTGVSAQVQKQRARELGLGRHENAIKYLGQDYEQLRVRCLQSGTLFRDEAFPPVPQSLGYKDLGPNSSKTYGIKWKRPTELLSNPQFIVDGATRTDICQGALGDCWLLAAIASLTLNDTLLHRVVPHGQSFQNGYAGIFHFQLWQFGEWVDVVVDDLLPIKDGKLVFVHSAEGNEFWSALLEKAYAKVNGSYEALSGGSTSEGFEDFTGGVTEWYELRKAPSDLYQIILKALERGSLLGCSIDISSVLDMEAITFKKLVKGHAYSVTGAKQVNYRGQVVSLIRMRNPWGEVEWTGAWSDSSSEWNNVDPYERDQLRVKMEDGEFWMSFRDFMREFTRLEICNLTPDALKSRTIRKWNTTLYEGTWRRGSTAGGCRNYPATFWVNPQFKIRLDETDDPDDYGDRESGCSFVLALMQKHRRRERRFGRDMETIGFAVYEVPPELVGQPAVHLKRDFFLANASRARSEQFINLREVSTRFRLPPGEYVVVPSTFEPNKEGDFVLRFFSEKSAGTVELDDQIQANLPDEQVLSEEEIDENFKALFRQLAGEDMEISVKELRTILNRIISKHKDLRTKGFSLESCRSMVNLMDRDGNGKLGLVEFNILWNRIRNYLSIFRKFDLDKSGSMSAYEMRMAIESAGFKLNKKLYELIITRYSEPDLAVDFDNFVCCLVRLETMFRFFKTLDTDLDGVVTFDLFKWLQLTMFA
# UniProt P83916, whole entry, looked up: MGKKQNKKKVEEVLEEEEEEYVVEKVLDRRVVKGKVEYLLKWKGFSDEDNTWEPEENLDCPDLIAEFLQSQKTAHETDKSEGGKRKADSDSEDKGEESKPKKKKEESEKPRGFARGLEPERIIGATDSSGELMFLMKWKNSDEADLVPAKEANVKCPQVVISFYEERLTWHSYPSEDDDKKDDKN
# UniProt Q14444, whole entry: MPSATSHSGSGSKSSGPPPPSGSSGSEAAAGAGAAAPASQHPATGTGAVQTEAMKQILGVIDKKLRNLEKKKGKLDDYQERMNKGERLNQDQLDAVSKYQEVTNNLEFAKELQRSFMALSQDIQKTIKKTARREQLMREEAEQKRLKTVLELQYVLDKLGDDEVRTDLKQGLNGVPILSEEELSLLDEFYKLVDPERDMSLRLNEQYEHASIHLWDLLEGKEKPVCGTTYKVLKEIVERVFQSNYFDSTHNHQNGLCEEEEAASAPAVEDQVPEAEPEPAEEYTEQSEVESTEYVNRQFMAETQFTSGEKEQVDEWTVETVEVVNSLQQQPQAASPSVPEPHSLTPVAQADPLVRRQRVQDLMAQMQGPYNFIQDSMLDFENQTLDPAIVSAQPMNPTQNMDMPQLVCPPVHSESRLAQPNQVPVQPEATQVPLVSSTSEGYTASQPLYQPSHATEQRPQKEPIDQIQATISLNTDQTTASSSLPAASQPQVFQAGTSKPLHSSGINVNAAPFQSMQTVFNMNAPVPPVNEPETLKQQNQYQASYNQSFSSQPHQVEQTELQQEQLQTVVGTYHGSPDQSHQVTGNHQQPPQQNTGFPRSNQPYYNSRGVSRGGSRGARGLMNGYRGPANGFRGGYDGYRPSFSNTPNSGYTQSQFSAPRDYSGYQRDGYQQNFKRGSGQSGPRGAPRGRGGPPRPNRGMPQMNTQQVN
# UniProt P48643, whole entry, looked up: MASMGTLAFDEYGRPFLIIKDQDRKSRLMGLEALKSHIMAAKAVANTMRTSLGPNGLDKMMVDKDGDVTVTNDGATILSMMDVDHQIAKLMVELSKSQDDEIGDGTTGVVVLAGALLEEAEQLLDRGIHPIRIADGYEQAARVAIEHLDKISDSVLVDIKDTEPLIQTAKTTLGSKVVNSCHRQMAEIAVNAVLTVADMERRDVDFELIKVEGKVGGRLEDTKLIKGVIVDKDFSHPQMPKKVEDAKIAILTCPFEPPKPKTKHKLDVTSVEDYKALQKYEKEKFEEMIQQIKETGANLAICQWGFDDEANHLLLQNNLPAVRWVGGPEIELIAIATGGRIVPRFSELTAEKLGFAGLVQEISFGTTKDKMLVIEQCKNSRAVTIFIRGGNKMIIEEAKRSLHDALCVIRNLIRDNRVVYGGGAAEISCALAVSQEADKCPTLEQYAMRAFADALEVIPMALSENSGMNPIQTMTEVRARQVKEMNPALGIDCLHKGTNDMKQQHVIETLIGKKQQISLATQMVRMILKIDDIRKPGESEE
# UniProt O75828: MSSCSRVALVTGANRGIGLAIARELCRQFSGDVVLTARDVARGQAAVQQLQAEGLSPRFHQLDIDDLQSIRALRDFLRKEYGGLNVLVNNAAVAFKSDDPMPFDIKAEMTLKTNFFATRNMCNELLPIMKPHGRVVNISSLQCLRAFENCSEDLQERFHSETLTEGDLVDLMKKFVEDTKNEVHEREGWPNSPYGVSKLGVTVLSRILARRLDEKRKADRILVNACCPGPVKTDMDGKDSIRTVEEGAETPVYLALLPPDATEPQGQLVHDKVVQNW
# UniProt P55210: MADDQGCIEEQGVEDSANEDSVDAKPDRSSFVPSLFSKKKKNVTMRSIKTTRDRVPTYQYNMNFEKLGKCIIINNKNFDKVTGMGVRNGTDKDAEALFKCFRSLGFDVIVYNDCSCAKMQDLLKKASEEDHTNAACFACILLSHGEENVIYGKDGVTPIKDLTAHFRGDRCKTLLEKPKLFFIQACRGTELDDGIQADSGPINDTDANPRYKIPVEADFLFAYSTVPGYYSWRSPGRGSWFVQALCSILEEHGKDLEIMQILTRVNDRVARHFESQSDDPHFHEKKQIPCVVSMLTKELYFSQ
# This is one part of the list.
# Compound: Cc1cc(ccc1-c1ccccc1)C(=O)N1CCCN(CC1)C(=O)CCl [compound 10]
# Experiment: probe-labelled cysteine peptide fold change vs DMSO (competition) (log2 fold change); higher = less target engagement (more negative = stronger competition)
# Settings: 50 µM; THP-1; incubation time: 4 h
# 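Also: competitive profiling in live THP-1 cells: cysteine peptides tagged with an iodoacetamide desthiobiotin (IA-DTB) probe, intensity after compound treatment relative to DMSO-treated cells.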
row,Target,probe-labelled cysteine peptide fold change
1,CAPZA2_P47755_111_EATDPRPCEVENAVESWR (UniProt P47755),0.0145
2,CCDC88B_A6NC98_1222_ESNQQLDLSACR (UniProt A6NC98),-0.637
3,CASP8AP2_Q9UKL3_270_DLSTGCGDGEPR (UniProt Q9UKL3),-0.202
4,CCL5_P13501_73_QVCANPEK (UniProt P13501),-0.729
5,CAPNS1_P04632_190_SGTICSSELPGAFEAAGFHLNEHLYNMIIRR (UniProt P04632),-0.19
6,CCT3_P49368_366_IGDEYFTFITDCKDPK (UniProt P49368),-0.866
7,CCNL2_Q96S94_190_ELGFCVHVK (UniProt Q96S94),0.482
8,CARHSP1_Q9Y2V2_112_MCSIPPK (UniProt Q9Y2V2),0.0208
9,CCDC88A_Q3V6T2_524_QSLQNCQNLSK (UniProt Q3V6T2),-0.0713
10,CAP1_Q01518_93_ALLVTASQCQQPAENK (UniProt Q01518),0.0761
11,CASP10_Q92851_386_EIMSHFTALQCPR (UniProt Q92851),-0.0643
12,CCDC97_Q96F63_218_TPTHQPPKPGSPGRPACPLSNLLLQSYEER (UniProt Q96F63),-0.849
13,CASP2_P42575_399_ACDMHVADMLVK (UniProt P42575),-0.204
14,CCDC47_Q96A33_209_LNQENEHIYNLWCSGR (UniProt Q96A33),0.0901
15,CASP1_P29466_364_LIEHMQEYACSCDVEEIFR (UniProt P29466),-0.0786
16,CCDC117_Q8IWD4_81_REEEEDDDCPVR (UniProt Q8IWD4),-0.115
17,CAPN1_P07384_417_IRLDETDDPDDYGDRESGCSFVLALMQK (UniProt P07384),-0.171
18,CAPN2_P17655_498_DGDFCIR (UniProt P17655),0.0316
19,CBX1_P83916_156_CPQVVISFYEER (UniProt P83916),-0.00934

row,Target,probe-labelled cysteine peptide fold change
1,CAPRIN1_Q14444_226_PVCGTTYK (UniProt Q14444),0.148
2,CASP4_P49662_336+337_YSWCCHLEEVFR (UniProt P49662),-0.828
3,CASP10_Q92851_350_CNPAHADGDCFVFCILTHGR (UniProt Q92851),0.0213
4,CASP8_Q14790-2_188_GEELCGVMTISDSPR (UniProt Q14790),0.0124
5,CAPN1_P07384_677_YSEPDLAVDFDNFVCCLVR (UniProt P07384),0.345
6,CASP2_P42575_270_VTDSCIVALLSHGVEGAIYGVDGK (UniProt P42575),-0.183
7,CASP10_Q92851_341+350_CNPAHADGDCFVFCILTHGR (UniProt Q92851),0.0374
8,CASP1_P29466_136_LCSLEEAQR (UniProt P29466),-0.171
9,CASP2_P42575_30_ILGVCGMHPHHQETLKK (UniProt P42575),-1.14
10,CARD6_Q9BX69_292_DVLLCLNMDR (UniProt Q9BX69),-0.152
11,CCT5_P48643_253_IAILTCPFEPPKPK (UniProt P48643),-0.0751
12,CASP2_P42575_320_MFFIQACR (UniProt P42575),-0.355
13,CBR3_O75828_227_ILVNACCPGPVK (UniProt O75828),-0.265
14,CBL_P22681_572_RPLPCTPGDCPSR (UniProt P22681),-0.0885
15,CCDC106_Q9BWC9_184_DADGVLCR (UniProt Q9BWC9),-0.715
16,CCT2_P78371_535_VPDHHPC (UniProt P78371),0.187
17,CASP7_P55210_246_GSWFVQALCSILEEHGK (UniProt P55210),0.467
18,CARD9_Q9H257_402_ADELQLQVFQCEAQLLAVEGR (UniProt Q9H257),0.639

# 2 records picked at random from the list so far, as already listed:
row,Target,probe-labelled cysteine peptide fold change
9,CCDC88A_Q3V6T2_524_QSLQNCQNLSK (UniProt Q3V6T2),-0.0713
11,CCT5_P48643_253_IAILTCPFEPPKPK (UniProt P48643),-0.0751
